Experimental data as given in PubChem BioAssay AID1487 (National Center for Advancing Translational Sciences (NCATS), 2009).
The other results are listed elsewhere or left out. These are further read-outs of the screen, such as a control signal, another cell line or another target. No call is given for them. Most of these compounds were active or inconclusive in the main read-out, so they are no random draw. Words in brackets tell the shape of the fitted curve; partial curves, single points and poor fits give uncertain potencies.

Test: qHTS Assay for Modulators of Lamin A Splicing
Details: HeLa LMNA splicing GFP/RFP minigene ratio, 48 h
Summary of the method: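 S3 HeLa cells stably expressing lamin A-EGFP splicing minigene plus DsRed2, 600 cells/well, 48 h compound exposure at 37C. Laser-scanning cytometry; analysed as GFP (500-530 nm)/RFP (575-640 nm) total intensity ratio; 0.5% DMSO vehicle.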

[1] = measured here: GFP splicing reporter channel
[2] = measured here: RFP viability control channel

SMILES	AC50 [1]	AC50 [2]
COc1ccccc1NS(=O)(=O)c1cn(C)c(C)n1	89.1 µM [falling, partial curve]	–
CCc1ccc(-c2ccc(SCC(=O)Nc3nnc(C)s3)nn2)cc1	10 µM [falling, partial curve, poor fit]	1.41 µM [falling, full curve, poor fit]
O=[N+]([O-])c1ccc(N/N=C2\CC3CC=CC23)c([N+](=O)[O-])c1 (configuration not stated)	7.94 µM [rising, partial curve, poor fit]	8.91 µM [rising, partial curve]
Cc1c(C(C)C)c(=O)n(-c2ccccc2)n1C	0.141 µM [falling, full curve, poor fit]	–
CCCNC(=O)Nc1nc(CC(=O)OCC)cs1	0.178 µM [falling, full curve, poor fit]	0.224 µM [falling, full curve, poor fit]
O=C(CCn1ccc2ccccc21)Nc1ccc(N2CCOCC2)cc1	0.501 µM [falling, partial curve]	0.398 µM [falling, partial curve]
CC(C)Nc1ncnc2c1cnn2-c1ccccc1	–	12.6 µM [rising, partial curve]
CCOC(=O)c1cnc(SCC(=O)Nc2cc(OC)cc(OC)c2)nc1N	3.98 µM [rising, partial curve]	10 µM [rising, partial curve]
CC1(C)NC(=O)N(CCOCCOc2cccc(Oc3ccccc3)c2)C1=O	11.2 µM [rising, partial curve]	17.8 µM [rising, single point]
CCCOc1ccc(/C=C2\SC(=S)N(CC3CCCO3)C2=O)cc1 (configuration not stated)	12.6 µM [rising, partial curve, poor fit]	31.6 µM [rising, single point]
COc1ccc(CNc2ncnc3ccc(-c4ccc(C(=O)N(C)C)cc4)cc23)c(OC)c1	11.2 µM [falling, partial curve]	15.8 µM [falling, partial curve]
O=C(COc1ccccc1Cl)Nc1ccc2nc(SCC(=O)N3CCOCC3)sc2c1	–	39.8 µM [falling, partial curve, poor fit]
CCC(=O)c1ccc(OCC(O)CN2CC(C)OC(C)C2)cc1 (configuration not stated)	0.398 µM [falling, full curve, poor fit]	–
CCCc1cc(=O)n2[nH]c(C(F)(F)F)nc2n1	0.141 µM [rising, full curve, poor fit]	–
CCOc1cccc(/C=N/Nc2ccc(S(=O)(=O)N(CC)CC)cn2)c1O	10 µM [rising, partial curve, poor fit]	12.6 µM [rising, partial curve]
O=C1COc2ccc(C(=O)CSc3nc4ccccc4c(=O)n3-c3ccc(Cl)c(Cl)c3)cc2N1	10 µM [falling, partial curve, poor fit]	11.2 µM [falling, partial curve]
CCOC(=O)c1cc2[nH]c3ccccc3c2[n+](-c2ccc([N+](=O)[O-])cc2)c1C	–	12.6 µM [rising, partial curve]
O=C(COc1ccccc1)Nc1ccc(Cl)c(-c2nc3ncccc3o2)c1	–	0.282 µM [rising, full curve, poor fit]
Cc1cc(C(F)(F)F)nc(CCNCc2c(C(=O)N3CCCC3)nc3ccccn23)n1	35.5 µM [falling, partial curve, poor fit]	–
CCCOc1ccc(C(=O)C(CCC(CNCC)C(=O)c2ccc(OCCC)cc2)CNCC)cc1 (configuration not stated)	17.8 µM [rising, single point]	20 µM [rising, single point]
COC(=O)c1sccc1S(=O)(=O)N(CC(=O)Nc1cc(F)ccc1F)c1ccc(C)c(C)c1	–	17.8 µM [rising, partial curve, poor fit]
CCc1ccc(-c2[nH]nc3nc(-c4cc(OC)ccc4OC)cc(C(=O)O)c23)cc1	–	4.47 µM [rising, partial curve]
CCc1ccc(C(=O)/C=C/c2ccc([N+](=O)[O-])o2)cc1	15.8 µM [falling, single point]	17.8 µM [falling, partial curve]
O=C(c1ccccc1-c1nc(-c2ccc(Cl)cc2)no1)N1CCCC1	–	11.2 µM [rising, partial curve]
CC(C)(C)Nc1nc(N2CCCC2)nc(N2CCCC2)n1	12.6 µM [falling, partial curve]	35.5 µM [falling, single point]
Cc1cc(Nc2ccccc2)c2c([N+](=O)[O-])cc(C)c(C)c2n1	–	11.2 µM [rising, partial curve]
Cc1ccc(N/C=C/C(=O)c2sc(-c3ccccc3)nc2C)cc1	17.8 µM [rising, single point]	31.6 µM [rising, single point]

Copied from the list:
AC50 [2], `CCCOc1ccc(/C=C2\SC(=S)N(CC3CCCO3)C2=O)cc1` (configuration not stated) reads 31.6 µM [rising, single point]
AC50 [1], `Cc1cc(C(F)(F)F)nc(CCNCc2c(C(=O)N3CCCC3)nc3ccccn23)n1` reads 35.5 µM [falling, partial curve, poor fit]
AC50 [2], `CCCOc1ccc(C(=O)C(CCC(CNCC)C(=O)c2ccc(OCCC)cc2)CNCC)cc1` (configuration not stated) reads 20 µM [rising, single point]
AC50 [1], `COc1ccccc1NS(=O)(=O)c1cn(C)c(C)n1` reads 89.1 µM [falling, partial curve]

Additional structures

SMILES	AC50 [1]	AC50 [2]
Cn1c(N)c(C(=O)COC(=O)c2ccc3c(c2)C(=O)N(c2ccc(Cl)cc2)C3=O)c(=O)n(C)c1=O	–	7.94 µM [falling, partial curve, poor fit]
Cc1ccc(-c2nn(-c3ccccc3)cc2CSC(=N)N)cc1	12.6 µM [falling, single point]	11.2 µM [falling, partial curve]
COc1ccccc1C1(CC(=O)N2CCCCC2)CCOC(C(C)C)C1 (configuration not stated)	–	1.12 µM [falling, full curve, poor fit]
N#CC1=C(N)N2C(=C(C#N)C1c1ccc(Br)cc1)Nc1ccccc12 (configuration not stated)	35.5 µM [falling, single point]	2 µM [rising, partial curve, poor fit]
COc1ccc(Nc2cc(C(=O)NCc3ccco3)c3ccccc3n2)c(OC)c1	6.31 µM [falling, partial curve]	–
COc1ccc(-c2nn(C)c(=O)c3ccccc23)cc1NC(=O)Cn1nc(C)c2ccccc2c1=O	–	14.1 µM [rising, single point]
Brc1c(CSc2nc3ccccc3o2)nc2ncccn12	–	12.6 µM [rising, single point]
COCCNC(=S)N/N=C(\C)c1cccc([N+](=O)[O-])c1	–	8.91 µM [rising, partial curve]
O=C(CN1CCN(Cc2ccccc2)CC1)N1CCCc2c1c(=O)oc1ccc(O)cc21	22.4 µM [falling, single point]	1 µM [falling, partial curve, poor fit]
Fc1cccc(Cl)c1CSc1nnc(COc2cccc3cccnc23)o1	–	14.1 µM [rising, single point]
CCOc1ccc(NS(=O)(=O)c2ccc(SC)cc2)cc1	35.5 µM [rising, single point]	35.5 µM [rising, single point]
Cn1cc(-c2nc3ccccc3[nH]2)c2ccccc21	–	12.6 µM [rising, single point]
CCCc1nn(C)c(C(=O)Nc2ccc(C(C)(C)C)cc2)c1Cl	35.5 µM [rising, single point]	35.5 µM [rising, single point]
CCc1c(C)nc2ncnn2c1NCc1cccs1	–	1.26 µM [rising, full curve, poor fit]
COc1ccccc1-c1nc(N(C)Cc2ccco2)c2ccccc2n1	11.2 µM [falling, partial curve]	–
Cc1cc(C)c(S(=O)(=O)N2CCOC2CNC(=O)C(=O)NCCc2c[nH]c3ccccc23)c(C)c1 (configuration not stated)	31.6 µM [rising, single point]	35.5 µM [rising, single point]
N#CC1=C(N)C(C#N)(C#N)C(c2cccnc2)C2CC(c3ccccc3)CC=C12 (configuration not stated)	15.8 µM [falling, single point]	17.8 µM [falling, partial curve]
Cc1c(Cl)cccc1Nc1ccccc1C(=O)O	28.2 µM [rising, partial curve]	7.08 µM [rising, full curve, poor fit]
COc1ccc(OC)c(CNc2ncnc3onc(C)c23)c1	–	0.00794 µM [falling, full curve, poor fit]
O=C(NC1CCCCCCC1)c1ccccc1O	11.2 µM [rising, single point]	15.8 µM [rising, single point]
CCOC(=O)c1cc2c(=O)n3ccccc3nc2n(C(C)C)c1=NC(=O)c1c(-c2c(F)cccc2Cl)noc1C	–	0.631 µM [falling, full curve, poor fit]
CCC1CCCCN1S(=O)(=O)c1ccc(C(=O)Nc2nnc(-c3cccs3)o2)cc1 (configuration not stated)	–	3.55 µM [rising, full curve]
CN(C)c1ccc(C(=O)NCc2ccc3c(c2)CCN3C(=O)c2ccc(Cl)cc2)cc1	1.12 µM [falling, full curve, poor fit]	–
O=C(O)CC(NC(=O)C12CC3CC(CC(C3)C1)C2)c1ccc(OC2CCCC2)cc1 (configuration not stated)	1.41 µM [rising, partial curve]	–
C=CCN1C(=O)C(CC(=O)Nc2ccccc2)S/C1=N/c1nccs1 (configuration not stated)	1.41 µM [rising, full curve]	2.51 µM [rising, full curve, poor fit]
N/C(=N\OC(=O)CCCOc1ccccc1)c1ccncc1	–	22.4 µM [rising, single point]
